The campaign covered roughly 410,000 compounds. About 18,000 (4.4%) were called active. The inconclusive results got no clear call from the source; some entries with a clear call stand among them for comparison. Rule as the data show it: active = activity change below about -60%; inconclusive = no clear call, values can overlap the other calls; inactive = above about -39%. The source holds several records for some structures; these can differ, active in one and inactive in another. Where a SMILES comes first, the peptide text is derived from it. [ ]: non-standard residue; d: D form.
Assay: qHTS Assay for inhibitors of the human cytomegalovirus (HCMV)
Settings: HFF cells, HCMV-luciferase reporter, 72 h; at 57.5 µM; stronger effect = lower value
Procedure, shortened: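 Two-dose cell screen: HFF monolayers treated with compounds and infected with luciferase-expressing HCMV at 1 PFU/cell, 72 h at 37C, then lysed for luciferase measurement.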
In the case of `Cc1c(-c2ccccc2)nc2ccccc2c1C(=O)Oc1ccc([N+](=O)[O-])cc1`, the activity change, negative = inhibition is reported as active: -76%. With `O=C1CN(C(=O)COc2ccc(F)cc2Br)c2ccccc2N1` the activity change, negative = inhibition was inconclusive: -48.4%. For `O=Cc1c[nH]c2ccc(OCc3ccccc3)cc12`, the activity change, negative = inhibition was inconclusive: -45.4%. For `CSc1cccc(NS(=O)(=O)c2cn(C)cn2)c1`, the activity change, negative = inhibition was inconclusive: -51.6%. In the case of `COc1ccccc1C1/C(=C(/O)c2ccc(C)cc2)C(=O)C(=O)N1CCN1CCOCC1` (centres undefined), the activity change, negative = inhibition is reported as inconclusive: -42%. In the case of `CC1(C(=O)N2CCN(c3ccc([N+](=O)[O-])cc3)CC2)CC1(Cl)Cl` (centres undefined), the activity change, negative = inhibition is reported as inconclusive: -40.4%. With `C=CCN(c1ccccc1)S(=O)(=O)c1cccc(C(=O)Nc2ncccc2C)c1` the activity change, negative = inhibition was inconclusive: -50.4%. For `COC(=O)c1[nH]c2c(c1C)C(=O)CC(c1cccs1)C2` (centres undefined), the activity change, negative = inhibition was active: -75.7%. With `O=C(CSc1nc(=O)[nH]c2c1CCC2)NCc1ccccc1Cl` the activity change, negative = inhibition was inconclusive: -49%. With `CN(C)CCCN(C(=O)/C=C/c1cccs1)c1nc2ccc(F)cc2s1` the activity change, negative = inhibition was inconclusive: -45.3%. With `Cc1nc(SCC(=O)NCc2cccs2)nc(C)c1C` the activity change, negative = inhibition was inconclusive: -58.7%. With `COc1ccc(NS(=O)(=O)c2ccc(N3CCOCC3)c(NC(=O)c3cccc(F)c3)c2)cc1` the activity change, negative = inhibition was active: -77.9%. For `CN(CC(=O)Nc1cccc(F)c1)C(=O)c1ccccc1Sc1ccccc1C#N`, the activity change, negative = inhibition was inactive: 2.7%. In the case of `Cc1ccc(NC(=S)Nc2ccc(OC(F)F)c(Cl)c2)cc1F`, the activity change, negative = inhibition is reported as inconclusive: -56.3%. In the case of `c1coc(Cn2c(-c3ccco3)nc3ccccc32)c1`, the activity change, negative = inhibition is reported as inconclusive: -41.8%. In the case of `CC[C@H](C)[C@@H]1NC(=O)[C@H]([C@@H](C)CC)NC(=O)[C@@H](CC(C)C)NC(=O)[C@H](Cc2ccccc2)NC(=O)[C@H](Cc2ccccc2)NC(=O)[C@@H]2CCCN2C(=O)[C@@H]2CCCN2C(=O)[C@H](C(C)C)NC(=O)[C@H](CC(C)C)NC1=O` (cyclo(FF[dL]IILVPP)), the activity change, negative = inhibition is reported as active: -80.5%. In the case of `CC(C)CC(=O)NC(=S)NNC(=O)c1ccc(NC(=O)C2CCCCC2)cc1`, the activity change, negative = inhibition is reported as inconclusive: -56.7%. With `CCN(C(=O)C1CCN(S(=O)(=O)c2cc(Br)cc3c2N(C(C)=O)CC3)CC1)c1cccc(C)c1` the activity change, negative = inhibition was inactive: -1.65%. In the case of `CC(C)CC(N(C)C)C1(c2ccc(Cl)cc2)CCC1` (centres undefined), the activity change, negative = inhibition is reported as inconclusive: -54.7%. With `CC1CCN(S(=O)(=O)c2ccc(NC(=O)Cn3nnc(-c4ccccc4)n3)cc2)CC1` the activity change, negative = inhibition was inactive: -26.7%. In the case of `CCO[C@H]1OC(C(=O)N2CCN(C)CC2)=C[C@@H](c2ccc3c(c2)OCO3)[C@@H]1CCCO`, the activity change, negative = inhibition is reported as inconclusive: -46.4%. In the case of `CC(C(=O)c1ccc(-c2ccccc2)cc1)[n+]1ccccc1` (centres undefined), the activity change, negative = inhibition is reported as active: -97.1%. For `C[C@]12CCC3C(CC[C@H]4[C@H](O)[C@H](O)CC[C@]34C)C1CCC2=O` (some centres undefined), the activity change, negative = inhibition was inconclusive: -42.8%. With `CC(C)c1ccc(Nc2nccc3[nH]c(-c4cccc(C(C)C)c4)nc23)cc1` the activity change, negative = inhibition was inconclusive: -58.3%. For `COc1ccc([C@H]2CC(=O)C[C@@H](CCn3cc(-c4nccn4C)nn3)O2)cc1`, the activity change, negative = inhibition was inactive: -4.65%. In the case of `Cc1ccc(C(=O)CSc2nnc3c4ccccc4nc(C(C)(C)C)n23)cc1`, the activity change, negative = inhibition is reported as inconclusive: -54.3%. In the case of `CN(CCC#N)C(=O)COC(=O)c1ccc2[nH]c3c(c2c1)CCCC3`, the activity change, negative = inhibition is reported as active: -72.6%. For `Cc1ccc(-n2c(SCC(=O)Nc3cccc(S(=O)(=O)NC4=NCCCCC4)c3)nc3ccccc3c2=O)cc1`, the activity change, negative = inhibition was active: -66.3%. With `CCN(CC)c1ccc(NC(=O)c2cnn(-c3ccccc3)c2-n2cccc2)c(C)c1` the activity change, negative = inhibition was inconclusive: -57.1%. In the case of `COc1ccc(-c2cn[nH]c2-c2ccc(O)cc2O)cc1`, the activity change, negative = inhibition is reported as active: -88.3%. With `O=C(Nc1ccccc1N1CCOCC1)c1ccc(Br)o1` the activity change, negative = inhibition was active: -62.9%. For `CCCCCC(=C/c1ccccc1)/C=N/Nc1ccc(S(=O)(=O)N2CCOCC2)cc1[N+](=O)[O-]`, the activity change, negative = inhibition was inactive: 4.89%. For `Cc1cc(C)c(C#N)c(SCS(=O)Cc2ccccc2)n1` (centres undefined), the activity change, negative = inhibition was inactive: -23.2%. With `COc1ccc(/C=N/NC(=O)c2nnn(-c3nonc3N)c2-c2cccs2)cc1OC` the activity change, negative = inhibition was inactive: 0%. In the case of `O=C(Nc1ccccc1Cc1ccccc1)c1ccccc1NS(=O)(=O)c1ccc(Cl)s1`, the activity change, negative = inhibition is reported as active: -104%. With `Cc1ccc(NCc2n[nH]c(=S)n2Cc2ccccc2)cc1Cl` the activity change, negative = inhibition was inconclusive: -40.1%. For `CNC(=O)c1ccsc1NC(=O)CCS(=O)(=O)c1ccc(Cl)cc1`, the activity change, negative = inhibition was inconclusive: -40.1%. For `Cc1cccc(NS(=O)(=O)c2ccc3c(c2)CC(C)N3C(=O)C2CCC2)c1C` (centres undefined), the activity change, negative = inhibition was inconclusive: -43.5%. With `CCc1ccc(CNc2ccc3c(c2)ncn3C(C)(C)C)cc1` the activity change, negative = inhibition was active: -64.4%. In the case of `COc1ccc(N2CCN(C(=O)C(=O)c3c[nH]c4ccccc34)CC2)cc1`, the activity change, negative = inhibition is reported as inactive: 28.3%. In the case of `CC1CCN(CCOCCOc2ccccc2-c2ccccc2)CC1`, the activity change, negative = inhibition is reported as inconclusive: -41.3%. For `CCCc1cc(-n2ccnc2C)n2c(nc3ccccc32)c1C#N`, the activity change, negative = inhibition was inconclusive: -47%. For `COc1ccc(C(=O)CSc2nnc(CNC(=O)c3ccccc3F)n2C)cc1OC`, the activity change, negative = inhibition was inactive: 56.3%. For `c1coc(CN2CCN(C(c3cccs3)c3nnnn3C3CCCC3)CC2)c1` (centres undefined), the activity change, negative = inhibition was inconclusive: -56.9%. In the case of `Cc1ccc(Cn2ccnc2SCC(=O)NCc2ccccc2Cl)cc1`, the activity change, negative = inhibition is reported as inconclusive: -48.6%. With `Cc1cccc(-c2nc(C)c(CCNC(=O)C(=O)Nc3ccccc3C#N)s2)c1` the activity change, negative = inhibition was inactive: 7.05%. With `COc1ccc(-n2nnnc2C2CCN(S(=O)(=O)c3ccc(NC(C)=O)cc3)CC2)cc1` the activity change, negative = inhibition was inconclusive: -47.2%. With `COc1ccc(Cl)cc1S(=O)(=O)NCc1ccc2c(c1)CCN2C(=O)c1cccc(C)c1` the activity change, negative = inhibition was active: -86.8%. In the case of `CC(C)c1ccc(C2NC(=O)c3n[nH]c(-c4cccs4)c32)cc1` (centres undefined), the activity change, negative = inhibition is reported as inconclusive: -52.8%. In the case of `Cc1cc(NC(=O)CSc2nc3ccccc3c(=O)n2CCCC(=O)NCc2ccccc2)n[nH]1`, the activity change, negative = inhibition is reported as inconclusive: -55.5%. In the case of `Cc1ccc(C(C)C)c(OCC(O)CN2CCN(c3ccccc3F)CC2)c1` (centres undefined), the activity change, negative = inhibition is reported as inconclusive: -56%. For `CC1(C)CC2(CC(c3ccccc3)Oc3cc(O)ccc32)NC(=S)N1` (centres undefined), the activity change, negative = inhibition was inconclusive: -50.8%. With `CCN(CCS(=O)(=O)c1ccc(Cl)cc1)Cc1nc2ccccc2c(=O)[nH]1` the activity change, negative = inhibition was inconclusive: -43.1%. For `Cc1cc(NC(=O)c2ccc(COc3ccccc3Cl)o2)no1`, the activity change, negative = inhibition was inactive: -11.8%. With `COc1ccc(N2CCN(S(=O)(=O)CCNC(=O)c3cccs3)CC2)cc1` the activity change, negative = inhibition was inconclusive: -45.6%. With `CC1(C)CC(=O)C/C(=N/NC(=O)c2ccc(-c3ccccc3)cc2)C1` the activity change, negative = inhibition was inconclusive: -42.1%. With `C=CCN1CC[C@]23c4c5ccc(O)c4O[C@H]2/C(=N/NC(=O)c2ccccc2)CC[C@@]3(O)[C@H]1C5` the activity change, negative = inhibition was active: -63.7%. For `Nc1nc(-c2ccccc2)cc(N2CCCCC2)n1`, the activity change, negative = inhibition was active: -62.7%. With `Cc1ccc(Nc2nc(N)c([N+](=O)[O-])c(NCCO)n2)cc1` the activity change, negative = inhibition was inactive: -10.9%. With `COc1ccc(CN2C(=O)CNC2=S)cc1` the activity change, negative = inhibition was inconclusive: -47.1%. In the case of `Cc1ccc(CNC(=O)c2cc3c(=O)n(Cc4ccco4)ccc3nc2C)cc1`, the activity change, negative = inhibition is reported as inconclusive: -56.2%. In the case of `O=C(COc1ccc([N+](=O)[O-])cc1Cl)NCCN1C(=O)CSC1=O`, the activity change, negative = inhibition is reported as inconclusive: -53.3%. With `Cc1cc(C)cc(NC(=O)CC23CC4CC(C2)CC(n2nnc(C)n2)(C4)C3)c1` the activity change, negative = inhibition was inconclusive: -52.2%. With `C=CCn1c(C2CCCCC2)n[nH]c1=S` the activity change, negative = inhibition was active: -96.8%. For `CC(=O)Nc1ccc(S(=O)(=O)Nc2c(C)nn(-c3ccccc3)c2C)cc1`, the activity change, negative = inhibition was inconclusive: -51.4%. For `S=C(Nc1ccc(Cl)cc1)N(CCCN1CCOCC1)Cc1ccco1`, the activity change, negative = inhibition was inactive: 24.8%. With `COc1ccccc1C(=O)Nc1ccnn1C1CCN(C)CC1` the activity change, negative = inhibition was inactive: -5.31%. For `COc1cccc(NC(=O)Cn2c(=O)n(CCC(=O)NCCc3ccc(Cl)cc3)c(=O)c3ccccc32)c1`, the activity change, negative = inhibition was inconclusive: -55.1%. For `CCc1ccc(CSc2nccn2-c2ccccc2)cc1`, the activity change, negative = inhibition was inconclusive: -44.4%. For `C=CCOc1cccc(C(=O)/C=C2/C(=O)Nc3ccccc32)c1`, the activity change, negative = inhibition was inactive: -5.59%. With `CC(C)CC(=O)NC(=S)Nc1ccc(N2CCOCC2)c(Cl)c1` the activity change, negative = inhibition was inconclusive: -42.6%. With `COc1cc(OC)c(NC(=O)c2ccc3c(SCC(=O)O)c4c(nc3c2)CCCC4)cc1Cl` the activity change, negative = inhibition was inconclusive: -40.1%. In the case of `COc1ccc(OC)c(C2NC(=S)NC(C)=C2C(=O)Nc2ccccn2)c1` (centres undefined), the activity change, negative = inhibition is reported as active: -99.4%. In the case of `Nc1cc(Cl)cc2c1-c1ccc(Cl)cc1C2`, the activity change, negative = inhibition is reported as inactive: -25.9%. With `COc1cc(NC(=O)N2CCNC2=O)cc(C(=O)Nc2cccc(C(F)(F)F)c2)c1` the activity change, negative = inhibition was inactive: -30.6%. For `O=C(CSc1nc(-c2ccco2)cc(C(F)(F)F)n1)N1CCN(Cc2ccccc2)CC1`, the activity change, negative = inhibition was inconclusive: -47.8%. With `O=C(Cc1ccccc1)NCCSCc1ccccc1` the activity change, negative = inhibition was inactive: -3.44%. For `CC1CCc2c(sc(NC(=O)CSc3ncn[nH]3)c2C#N)C1` (centres undefined), the activity change, negative = inhibition was active: -66.1%. With `Cc1ccc(Cl)cc1N1CCN(C(=O)CCC(=O)O)CC1` the activity change, negative = inhibition was inconclusive: -42.4%. In the case of `CN(Cc1ccccc1)C(=O)COC(=O)c1ccccc1SCC(=O)N1CCCC1`, the activity change, negative = inhibition is reported as active: -60.8%. For `c1ccc(OCCN2C3=NCCN3c3ccccc32)cc1`, the activity change, negative = inhibition was inactive: -17.4%. With `O=C(Nn1cc(C(=O)Nc2ccc(F)cc2F)c2ccccc2c1=O)c1cnccn1` the activity change, negative = inhibition was inactive: -22.1%. With `C[C@@H]1CN([C@@H](C)CO)C(=O)c2cc(NS(=O)(=O)c3ccc(F)cc3)ccc2O[C@@H](C)CCCCO[C@H]1CN(C)C(=O)NC1CCCCC1` the activity change, negative = inhibition was active: -85.7%. With `COc1ccc(-c2cc(-c3ccco3)[nH]c(=O)c2C#N)cc1OC` the activity change, negative = inhibition was inactive: 13.6%.

From PubChem BioAssay AID1259415 (National Center for Advancing Translational Sciences (NCATS), 2018)
% is scaled to controls: 0 for no effect and ±100 for the full control effect.
